# Experimental data reported in patent US20250043299A1, “POINT MUTATIONS THAT BOOST AROMATIC AMINO ACID PRODUCTION AND CO2 ASSIMILATION IN PLANTS” (Wisconsin Alumni Research Foundation, priority 2021, published 2025).
# At least one compound was matched to its structure with a doubt left.
# Columns and labels:
# [1] = test system: Arabidopsis thaliana DHS^WT isoforms (DHS1, DHS2, DHS3), SEQ ID NO:1-3; experiment: DHS enzyme assay with effector, all Arabidopsis DHS WT isoforms (summary statements); assay type: biochemical; details: effector screening (FIG. 2D)
# [2] = test system: Arabidopsis Col-0 WT plants; experiment: Plant growth on media containing effector, Arabidopsis Col-0 WT; assay type: in vivo, Arabidopsis thaliana; details: <10 μM; independent of genotype
smiles,measurement,setting,value
O=C(O)Cc1ccc(O)cc1 [4-hydroxylphenylacetate],inhibition of all DHS^WT isoforms,[1],"neither phenylpyruvate (PPY) or 4-hydroxylphenylacetate, effectively inhibited"
"O=C(O)C(=O)Cc1c[nH]c2ccccc12 [IPA, indole-3-pyruvate]",plant growth,[2],impaired plant growth
"O=C(O)C(=O)Cc1ccccc1 [PPY, phenylpyruvate]",inhibition of all DHS^WT isoforms,[1],"neither phenylpyruvate (PPY) or 4-hydroxylphenylacetate, effectively inhibited"
